Results from patent US20240173352A1 (A2 BIOTHERAPEUTICS, published 2024).

Biological target: HLA-A*02 HA-1(H) (…) pMHC on T2 cells (human)
Test: cell-based or functional assay

additional right shift in activity of the NY-ESO-1 TCR: ~10 fold | blocking of the KRAS TCR (shift in activity): ~5 fold | downward shift of Emax of the KRAS TCR: 2.7 fold | downward shift of Emax of the NY-ESO-1 TCR: 1.5 fold
B1: HA-1 Ftcr (KP7 HA-1H FTCRalpha LIR1 TICD and KP7 HA-1H FTCRbeta LIR1 TICD) (receptor)
TCR alpha: KNEVEQSPQNLTAQEGEFITINCSYSVGISALHWLQQHPGGGIVSLFMLSSGKKKHGRLIATINIQEKHSSLHITASHPRDSAVYICAVRSVSGAGSYQLTFGKGTKLSVIPNIQNPDPAVYQLRDSKSSDKSVCLFTDFDSQTNVSQSKDSDVYITDKCVLDMRSMDFKSNSAVAWSNKSDFACANAFNNSIIPEDTFFPSPESSCDVKLVEKSFETDTNLNFQNLSVVIGILVAVILLLLLLLLLFLILRHRRQGKHWTSTQRKADFQHPAGAVGPEPTDRGLQWRSSPAADAQEENLYAAVKHTQPEDGVEMDTRSPHDEDPQAVTYAEVKHSRPRREMASPPSPLSGEFLDTKDRQAEEDRQMDTEAAASEAPQDVTYAQLHSLTLRREATEPPPSQEGPSPAVPSIYATLAIH
TCR beta: DTGVSQNPRHKITKRGQNVTFRCDPISEHNRLYWYRQTLGQGPEFLTYFQNEAQLEKSRLLSDRFSAERPKGSFSTLEIQRTEQGDSAMYLCASSIDSFNEQFFGPGTRLTVLEDLKNVFPPEVAVFEPSEAEISHTQKATLVCLATGFYPDHVELSWWVNGKEVHSGVCTDPQPLKEQPALNDSRYCLSSRLRVSATFWQNPRNHFRCQVQFYGLSENDEWTQDRAKPVTQIVSAEAWGRADCGFTSESYQQGVLSVVIGILVAVILLLLLLLLLFLILRHRRQGKHWTSTQRKADFQHPAGAVGPEPTDRGLQWRSSPAADAQEENLYAAVKHTQPEDGVEMDTRSPHDEDPQAVTYAEVKHSRPRREMASPPSPLSGEFLDTKDRQAEEDRQMDTEAAASEAPQDVTYAQLHSLTLRREATEPPPSQEGPSPAVPSIYATLAIH
